This is an account of results in PMC8490708.

The test addresses T1, SALL1-YFP (human) (UniProt Q9NSC2).
T1 sequence: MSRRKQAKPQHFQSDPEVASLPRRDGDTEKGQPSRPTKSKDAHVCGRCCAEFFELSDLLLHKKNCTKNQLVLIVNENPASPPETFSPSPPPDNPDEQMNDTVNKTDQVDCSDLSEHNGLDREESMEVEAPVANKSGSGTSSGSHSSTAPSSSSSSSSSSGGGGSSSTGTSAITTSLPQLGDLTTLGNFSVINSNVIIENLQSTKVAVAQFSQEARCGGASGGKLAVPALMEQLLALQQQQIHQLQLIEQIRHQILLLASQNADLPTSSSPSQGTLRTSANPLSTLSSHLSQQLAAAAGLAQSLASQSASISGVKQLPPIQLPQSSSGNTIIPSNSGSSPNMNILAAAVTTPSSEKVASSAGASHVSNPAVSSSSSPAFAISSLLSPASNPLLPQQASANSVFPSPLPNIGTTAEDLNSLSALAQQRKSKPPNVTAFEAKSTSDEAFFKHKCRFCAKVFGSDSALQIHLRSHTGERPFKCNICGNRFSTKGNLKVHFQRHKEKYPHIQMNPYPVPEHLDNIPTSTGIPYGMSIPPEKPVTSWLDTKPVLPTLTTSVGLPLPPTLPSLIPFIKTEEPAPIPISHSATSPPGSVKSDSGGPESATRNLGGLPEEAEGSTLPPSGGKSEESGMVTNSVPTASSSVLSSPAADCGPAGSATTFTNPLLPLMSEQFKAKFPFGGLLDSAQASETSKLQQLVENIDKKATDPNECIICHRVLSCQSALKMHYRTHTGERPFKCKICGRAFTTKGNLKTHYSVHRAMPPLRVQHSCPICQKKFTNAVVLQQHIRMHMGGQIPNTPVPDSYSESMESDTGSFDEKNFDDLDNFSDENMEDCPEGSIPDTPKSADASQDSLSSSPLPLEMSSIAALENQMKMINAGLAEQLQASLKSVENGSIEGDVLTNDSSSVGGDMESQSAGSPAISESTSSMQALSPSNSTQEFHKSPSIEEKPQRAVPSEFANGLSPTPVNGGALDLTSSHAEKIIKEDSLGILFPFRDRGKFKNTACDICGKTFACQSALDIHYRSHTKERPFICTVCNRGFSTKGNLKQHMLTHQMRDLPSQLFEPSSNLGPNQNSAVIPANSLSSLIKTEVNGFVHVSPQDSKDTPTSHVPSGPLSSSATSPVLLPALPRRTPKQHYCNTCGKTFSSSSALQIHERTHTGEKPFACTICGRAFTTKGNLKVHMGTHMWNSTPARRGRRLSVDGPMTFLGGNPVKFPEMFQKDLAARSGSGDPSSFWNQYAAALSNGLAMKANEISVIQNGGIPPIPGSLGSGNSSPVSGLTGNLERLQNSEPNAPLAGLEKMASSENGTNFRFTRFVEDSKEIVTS
In words: pull-down; GFP-Trap co-pulldown: YFP-tagged bait and HA-tagged prey co-transfected in HEK 293FT cells; lysate (150 mM NaCl, 1% NP-40, 0.5% Triton X-100) with GFP-Trap resin overnight at 4°C; washes with 300 mM NaCl; Western blot.

These are yes or no findings as the source states them, for the method shown. In cells and extracts the contact can be indirect. Some results given as binding are weak or reduced against the parent protein; the word gives no strength. Sequences can lack the tags named with a protein.

B1: CBX4-HA (protein, UniProt O00257 1-560)
chain: MELPAVGEHVFAVESIEKKRIRKGRVEYLVKWRGWSPKYNTWEPEENILDPRLLIAFQNRERQEQLMGYRKRGPKPKPLVVQVPTFARRSNVLTGLQDSSTDNRAKLDLGAQGKGQGHQYELNSKKHHQYQPHSKERAGKPPPPGKSGKYYYQLNSKKHHPYQPDPKMYDLQYQGGHKEAPSPTCPDLGAKSHPPDKWAQGAGAKGYLGAVKPLAGAAGAPGKGSEKGPPNGMMPAPKEAVTGNGIGGKMKIVKNKNKNGRIVIVMSKYMENGMQAVKIKSGEVAEGEARSPSHKKRAADERHPPADRTFKKAAGAEEKKVEAPPKRREEEVSGVSDPQPQDAGSRKLSPTKEAFGEQPLQLTTKPDLLAWDPARNTHPPSHHPHPHPHHHHHHHHHHHHAVGLNLSHVRKRCLSETHGEREPCKKRLTARSISTPTCLGGSPAAERPADLPPAAALPQPEVILLDSDLDEPIDLRCVKTRSEAGEPPSSLQVKPETPASAAVAVAAAAAPTTTAEKPPAEAQDEPAESLSEFKPFFGNIIITDVTANCLTVTFKEYVTV
Regarding B1, the binding result is “binds”.
